Patent US10562878B2

System: mice
Test: Mouse locomotor activity
Type: in vivo
Conditions: 3 mg/kg PO

Q: With `CN(C)CC1(c2ccc3ccccc3c2)CCC(C)(O)CC1` (stereo not shown) as the compound, how does the “Mouse Locomotor Activity Total Distance Traveled ± S.E.M.” value read?
A: Its value is 415.9 ± 61.6 and 341.8 ± 78.3.

Not every entry of the source has a single result; some have several. The list is limited to them. The source may hold further records. The records of an entry differ for a reason that is not stated; some may be repeats, others may stem from another dose, organism or construct than stated.
